Results from publication PMC4881018, “Sec15 links bud site selection to polarised cell growth and exocytosis in Candida albicans” (Scientific Reports, 2016).
These are yes or no findings as the source states them, for the method shown. For part of these data: In cells and extracts the contact can be indirect. For part of these data: Binding calls can cover weak binding; strength is not graded here.

Experiments:
[1] = molecular target: GST-Sec15^550–892 (C. albicans); experiment: pull-down; GST fusion protein immobilised on glutathione-Sepharose beads (20 μl), incubated with 20 μg of purified His-tagged protein in 200 μl binding buffer (1× PBS, 1 mg/ml ovalbumin, 10 mM β-mercaptoethanol, 0.1% IGPAL-30), 1 hour at room temperature; four washes; anti-His blot; both purified
Sec15-GFP (C. albicans) = experiment: co-IP; C. albicans cell lysates in HEPES lysis buffer (50 mM Hepes pH 7.5, 1 mM EDTA, 5% glycerol, 0.05% Tween 20, 105 mM KCl); antibody-conjugated beads (anti-GFP, anti-Myc or anti-HA), 4 °C for 2 h; western blot
Bem1-HA (C. albicans) = experiment: as above

His-Bem1^301–632 (from UniProt A0A1D8PLB6 301-632) (domain or fragment)
binding [1]: no binding (tested: 20 μg)

Bem1-HA (from UniProt A0A1D8PLB6 1-632)
binding (Sec15-GFP (C. albicans)): binds

Sec15-GFP (from UniProt A0A1D8PM29 1-892)
binding (Bem1-HA (C. albicans)): binds
